# Laboratory results taken from the supplement of paper PMC12819154, “High-throughput peptide-centric local stability assay extends protein–ligand identification to membrane proteins, tissues and bacteria” (Nature Structural & Molecular Biology, 2025).
# Chains of the proteins cited; added tags and fusions are not shown. Lines headed by an entry give the natural chain unless they say otherwise; changes in a name come on top.
# UniProt Q9HC35: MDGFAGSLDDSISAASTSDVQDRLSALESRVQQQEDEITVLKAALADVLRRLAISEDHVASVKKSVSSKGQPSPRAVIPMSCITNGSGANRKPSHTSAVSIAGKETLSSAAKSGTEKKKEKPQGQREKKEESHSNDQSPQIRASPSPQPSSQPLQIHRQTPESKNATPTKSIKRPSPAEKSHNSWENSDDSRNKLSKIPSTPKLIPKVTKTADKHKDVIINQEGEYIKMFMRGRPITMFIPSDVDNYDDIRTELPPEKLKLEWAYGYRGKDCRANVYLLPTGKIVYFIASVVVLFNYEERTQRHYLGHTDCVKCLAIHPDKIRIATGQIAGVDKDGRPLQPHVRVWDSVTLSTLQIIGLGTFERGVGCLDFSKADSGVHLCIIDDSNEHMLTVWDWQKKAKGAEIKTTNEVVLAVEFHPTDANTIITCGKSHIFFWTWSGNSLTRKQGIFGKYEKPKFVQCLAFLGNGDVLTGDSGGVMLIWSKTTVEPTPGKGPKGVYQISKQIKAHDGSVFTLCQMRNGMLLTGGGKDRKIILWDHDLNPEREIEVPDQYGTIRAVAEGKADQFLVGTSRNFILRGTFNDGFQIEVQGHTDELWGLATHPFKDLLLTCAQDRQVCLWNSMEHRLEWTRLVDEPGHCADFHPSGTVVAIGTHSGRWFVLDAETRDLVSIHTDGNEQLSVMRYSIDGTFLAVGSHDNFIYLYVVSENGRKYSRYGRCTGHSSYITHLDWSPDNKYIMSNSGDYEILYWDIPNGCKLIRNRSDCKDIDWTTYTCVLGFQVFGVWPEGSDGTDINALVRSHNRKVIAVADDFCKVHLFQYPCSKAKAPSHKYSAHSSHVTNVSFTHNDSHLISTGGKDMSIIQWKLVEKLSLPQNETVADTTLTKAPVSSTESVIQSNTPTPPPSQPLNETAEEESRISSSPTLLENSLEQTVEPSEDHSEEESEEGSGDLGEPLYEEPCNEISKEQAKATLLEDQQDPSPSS
# UniProt Q9H6E5: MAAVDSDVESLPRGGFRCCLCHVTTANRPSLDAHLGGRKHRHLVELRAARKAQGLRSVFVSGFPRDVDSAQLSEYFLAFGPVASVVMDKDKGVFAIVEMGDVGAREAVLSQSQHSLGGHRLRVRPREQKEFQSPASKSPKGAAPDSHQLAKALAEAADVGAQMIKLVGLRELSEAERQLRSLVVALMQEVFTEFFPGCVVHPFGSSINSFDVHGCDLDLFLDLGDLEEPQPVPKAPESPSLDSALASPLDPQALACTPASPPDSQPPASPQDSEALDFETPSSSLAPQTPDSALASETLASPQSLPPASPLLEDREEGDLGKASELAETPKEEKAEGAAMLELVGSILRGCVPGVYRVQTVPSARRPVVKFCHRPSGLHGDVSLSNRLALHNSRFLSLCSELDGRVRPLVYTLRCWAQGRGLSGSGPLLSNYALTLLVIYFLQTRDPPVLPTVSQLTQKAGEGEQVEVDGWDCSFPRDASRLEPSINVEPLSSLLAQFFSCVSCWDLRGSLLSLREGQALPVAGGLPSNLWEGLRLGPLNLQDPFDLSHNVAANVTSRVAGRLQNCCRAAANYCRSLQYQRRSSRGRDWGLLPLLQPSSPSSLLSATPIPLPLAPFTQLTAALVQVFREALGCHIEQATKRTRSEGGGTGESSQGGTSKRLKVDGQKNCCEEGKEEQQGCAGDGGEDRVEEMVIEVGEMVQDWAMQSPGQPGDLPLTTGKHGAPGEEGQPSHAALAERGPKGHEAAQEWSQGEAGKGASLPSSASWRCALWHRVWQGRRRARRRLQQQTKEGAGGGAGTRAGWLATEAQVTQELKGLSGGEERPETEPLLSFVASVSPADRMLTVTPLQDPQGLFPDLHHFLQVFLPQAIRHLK
# UniProt Q9HA65: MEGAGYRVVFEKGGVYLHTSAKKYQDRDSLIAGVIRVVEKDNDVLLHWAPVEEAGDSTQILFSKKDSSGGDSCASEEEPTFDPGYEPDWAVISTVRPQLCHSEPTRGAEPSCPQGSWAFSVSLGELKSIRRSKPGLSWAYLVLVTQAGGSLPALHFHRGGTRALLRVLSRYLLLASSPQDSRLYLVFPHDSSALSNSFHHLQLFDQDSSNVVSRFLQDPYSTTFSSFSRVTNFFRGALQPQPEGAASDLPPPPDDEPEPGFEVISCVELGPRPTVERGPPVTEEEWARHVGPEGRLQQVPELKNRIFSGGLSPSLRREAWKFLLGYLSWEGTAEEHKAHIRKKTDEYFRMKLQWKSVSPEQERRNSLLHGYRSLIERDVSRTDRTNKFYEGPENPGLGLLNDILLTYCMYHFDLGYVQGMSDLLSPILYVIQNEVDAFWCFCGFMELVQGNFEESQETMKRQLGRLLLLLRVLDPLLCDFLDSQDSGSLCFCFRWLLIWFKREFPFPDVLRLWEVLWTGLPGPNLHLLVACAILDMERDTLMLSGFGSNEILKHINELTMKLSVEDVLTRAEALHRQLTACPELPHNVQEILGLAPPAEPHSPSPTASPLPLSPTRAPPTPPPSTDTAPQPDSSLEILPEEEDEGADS
# UniProt Q9HAJ7: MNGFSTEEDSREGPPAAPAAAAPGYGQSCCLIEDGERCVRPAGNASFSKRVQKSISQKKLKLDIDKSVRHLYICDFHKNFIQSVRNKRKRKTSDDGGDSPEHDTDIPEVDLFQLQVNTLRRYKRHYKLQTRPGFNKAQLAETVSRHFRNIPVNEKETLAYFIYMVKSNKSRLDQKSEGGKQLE
# UniProt Q9H967: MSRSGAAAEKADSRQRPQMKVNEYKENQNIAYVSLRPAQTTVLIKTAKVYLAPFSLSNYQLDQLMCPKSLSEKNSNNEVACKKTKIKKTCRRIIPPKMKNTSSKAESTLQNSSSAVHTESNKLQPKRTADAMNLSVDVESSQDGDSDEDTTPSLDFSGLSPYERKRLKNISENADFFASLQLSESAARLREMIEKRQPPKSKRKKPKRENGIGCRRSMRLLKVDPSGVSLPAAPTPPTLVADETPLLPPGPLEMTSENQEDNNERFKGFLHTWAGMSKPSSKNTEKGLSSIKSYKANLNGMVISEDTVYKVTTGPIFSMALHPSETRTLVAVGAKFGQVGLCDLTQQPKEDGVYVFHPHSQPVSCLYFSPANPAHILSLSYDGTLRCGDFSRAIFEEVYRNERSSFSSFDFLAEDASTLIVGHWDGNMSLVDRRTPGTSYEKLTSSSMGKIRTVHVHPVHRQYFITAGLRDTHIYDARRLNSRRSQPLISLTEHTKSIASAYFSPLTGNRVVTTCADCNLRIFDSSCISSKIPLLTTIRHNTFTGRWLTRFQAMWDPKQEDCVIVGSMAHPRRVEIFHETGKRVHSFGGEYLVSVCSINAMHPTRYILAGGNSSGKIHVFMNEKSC
# UniProt Q9H8G1: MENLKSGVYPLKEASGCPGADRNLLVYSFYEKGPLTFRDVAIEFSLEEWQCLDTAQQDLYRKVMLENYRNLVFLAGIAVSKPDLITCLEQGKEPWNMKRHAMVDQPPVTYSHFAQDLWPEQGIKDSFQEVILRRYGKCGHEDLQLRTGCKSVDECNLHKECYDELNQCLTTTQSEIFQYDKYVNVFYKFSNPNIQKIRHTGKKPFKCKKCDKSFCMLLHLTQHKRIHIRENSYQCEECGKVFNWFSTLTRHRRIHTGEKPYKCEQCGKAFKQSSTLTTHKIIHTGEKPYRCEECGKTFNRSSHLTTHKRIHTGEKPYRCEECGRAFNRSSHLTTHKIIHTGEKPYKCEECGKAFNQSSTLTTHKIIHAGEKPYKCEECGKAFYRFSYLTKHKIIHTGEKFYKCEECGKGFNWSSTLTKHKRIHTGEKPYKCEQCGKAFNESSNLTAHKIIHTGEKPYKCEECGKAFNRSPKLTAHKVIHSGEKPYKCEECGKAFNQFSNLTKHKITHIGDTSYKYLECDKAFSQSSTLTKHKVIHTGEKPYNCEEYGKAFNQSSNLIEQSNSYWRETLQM
# UniProt Q9H8X2: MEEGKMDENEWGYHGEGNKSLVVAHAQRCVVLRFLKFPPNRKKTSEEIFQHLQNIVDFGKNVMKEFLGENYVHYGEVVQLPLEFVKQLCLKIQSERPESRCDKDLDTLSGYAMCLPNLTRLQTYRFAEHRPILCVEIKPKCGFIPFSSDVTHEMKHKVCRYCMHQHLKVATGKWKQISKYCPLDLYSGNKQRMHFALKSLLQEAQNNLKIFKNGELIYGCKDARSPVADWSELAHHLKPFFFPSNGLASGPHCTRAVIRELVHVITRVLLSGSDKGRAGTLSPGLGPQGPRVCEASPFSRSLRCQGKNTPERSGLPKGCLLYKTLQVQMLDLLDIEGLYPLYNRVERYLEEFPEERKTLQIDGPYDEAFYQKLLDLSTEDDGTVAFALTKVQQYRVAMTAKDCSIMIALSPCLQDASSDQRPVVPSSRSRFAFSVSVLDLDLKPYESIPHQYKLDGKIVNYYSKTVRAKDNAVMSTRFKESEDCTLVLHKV
# UniProt Q9H5J8: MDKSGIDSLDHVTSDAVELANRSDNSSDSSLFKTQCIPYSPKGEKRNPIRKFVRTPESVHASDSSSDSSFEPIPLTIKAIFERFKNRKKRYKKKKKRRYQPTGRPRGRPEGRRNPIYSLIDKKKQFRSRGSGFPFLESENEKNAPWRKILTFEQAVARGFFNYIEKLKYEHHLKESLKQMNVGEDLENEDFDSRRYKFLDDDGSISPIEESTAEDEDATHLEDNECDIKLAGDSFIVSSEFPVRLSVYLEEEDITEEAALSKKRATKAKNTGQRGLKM
# Some of the results follow. Most values lie at the level of the controls, where differences are scatter.
# Compound: Cc1nc(Nc2ncc(C(=O)Nc3c(C)cccc3Cl)s2)cc(N2CCN(CCO)CC2)n1 [dasatinib]
# Assay: log2 fold change of tryptic peptide abundance, ligand vs vehicle (limited proteolysis) (log2 ratio); higher = more trypsin-susceptible (destabilized)
# Conditions: ligand concentration: 5 uM; sample: K562 cleared lysate
row,Target,log2 fold change
1,"EML4 (peptide sequence: DMSIIQWK, peptide start residue: 856) (UniProt Q9HC35)",-0.177
2,"TUT1 (peptide sequence: HGAPGEEGQPSHAALAER, peptide start residue: 721) (UniProt Q9H6E5)",0.168
3,"TBC1D17 (peptide sequence: MEGAGYRVVFEKGGVYLHTSAK, peptide start residue: 1) (UniProt Q9HA65)",0.277
4,"SAP30L (peptide sequence: NFIQSVR, peptide start residue: 79) (UniProt Q9HAJ7)",-0.0977
5,"WDR76 (peptide sequence: MSRSGAAAEK, peptide start residue: 1) (UniProt Q9H967)",0.407
6,"UniProt Q9H8G1 (peptide sequence: YLECDKAFSQSSTLTK, peptide start residue: 515)",-0.131
7,"IPPK (peptide sequence: AKDNAVMSTR, peptide start residue: 468) (UniProt Q9H8X2)",-0.529
8,"UniProt Q9H5J8 (peptide sequence: RNPIYSLIDKK, peptide start residue: 113)",0.331

# An excerpt of these results, bar-delimited:
row | Target | log2 fold change
2 | TUT1 (peptide sequence: HGAPGEEGQPSHAALAER, peptide start residue: 721) (UniProt Q9H6E5) | 0.168
8 | UniProt Q9H5J8 (peptide sequence: RNPIYSLIDKK, peptide start residue: 113) | 0.331
